Laboratory results reported in the supplement of paper PMC8090911.
Structures can show the parent of a compound that is named as a salt. The list shows a part of the results. Most values come without repeats; read them as rough.

test system: p95-ErbB2-MCF7; assay: perinuclear lysosome accumulation (PNLA, size of LAMP2 puncta), robust Z-score vs plate median; higher = more perinuclear lysosome accumulation (reversal of invasive lysosome distribution); conditions: 5 µM; 24 h

**Q.** How did the perinuclear lysosome accumulation turn out when `CCCNC(C)C(=O)Nc1c(C)csc1C(=O)OC` (stereo not drawn) [Articaine hydrochloride] was run?
**A.** 0.282

**Q.** Which perinuclear lysosome accumulation does the source give for `NCCc1cc[nH]n1` [Betazole hydrochloride] here?
**A.** 0.292

**Q.** Which perinuclear lysosome accumulation does the source give for `Cc1c(NC(C)C)c(=O)n(-c2ccccc2)n1C` [Isopyrin hydrochloride] here?
**A.** -0.612

**Q.** For `C[C@]12CCC(=O)C=C1C=C[C@@H]1[C@@H]2CC[C@@]2(C)[C@H]1CC[C@@]21CCC(=O)O1` [Canrenone], which perinuclear lysosome accumulation is on record?
**A.** -2.56

**Q.** Which perinuclear lysosome accumulation does the source give for `Oc1cc(O)c2c(c1)O[C@H](c1ccc(O)c(O)c1)[C@@H](O)C2` (racemic) [Catechin-(+,-) hydrate] here?
**A.** -0.501

**Q.** With `NC(=O)OCC(O)COc1ccc(Cl)cc1` (stereo not drawn) [Chlorphensin carbamate] as the compound, how does the perinuclear lysosome accumulation read?
**A.** -0.271

**Q.** With `CC1(C)S[C@@H]2[C@H](NC(=O)[C@H](N)c3ccccc3)C(=O)N2[C@H]1C(=O)OC1OC(=O)c2ccccc21` (stereo partly drawn) [Talampicillin hydrochloride] as the compound, how does the perinuclear lysosome accumulation read?
**A.** 0.803

**Q.** How did the perinuclear lysosome accumulation turn out when `CN1C(C(=O)Nc2ccccn2)=C(O)c2ccccc2S1(=O)=O` [Piroxicam] was run?
**A.** -0.36

**Q.** For `COCCOC(=O)C1=C(C)NC(C)=C(C(=O)OC(C)C)C1c1cccc([N+](=O)[O-])c1` (stereo not drawn) [Nimodipine], which perinuclear lysosome accumulation is on record?
**A.** -0.612

**Q.** For `COC(=O)CCc1ccc(OCC(O)CNC(C)C)cc1` (stereo not drawn) [Esmolol hydrochloride], which perinuclear lysosome accumulation is on record?
**A.** -0.264

**Q.** `CNCCC=C1c2ccccc2C=Cc2ccccc21` [Norcyclobenzaprine] was tested. Which perinuclear lysosome accumulation did it give?
**A.** 0.59

**Q.** For `NC(=O)c1ccc[n+]([C@@H]2O[C@H](COP(=O)([O-])OP(=O)(O)OC[C@H]3O[C@@H](n4cnc5c(N)ncnc54)[C@H](O)[C@@H]3O)[C@@H](O)[C@H]2O)c1` [Nadide], which perinuclear lysosome accumulation is on record?
**A.** 0.883

**Q.** Which perinuclear lysosome accumulation does the source give for `Cc1ccc(C)c(OCCCC(C)(C)C(=O)O)c1` [Gemfibrozil] here?
**A.** -0.166

**Q.** Which perinuclear lysosome accumulation does the source give for `CN1CCc2cccc3c2[C@H]1Cc1ccc(O)c(O)c1-3` [R(-) Apomorphine hydrochloride hemihydrate] here?
**A.** 0.645

**Q.** How did the perinuclear lysosome accumulation turn out when `CCC(NC(C)C)C(O)c1ccc(O)c(O)c1` (stereo not drawn) [Isoetharine mesylate salt] was run?
**A.** 0.463

**Q.** Which perinuclear lysosome accumulation does the source give for `CCC(Cc1c(I)cc(I)c(N)c1I)C(=O)O` (stereo not drawn) [Iopanoic acid] here?
**A.** -1.28

**Q.** With `C[C@@H]1[C@H](O)[C@@H](C)/C=C/C=C/C=C/C=C/C=C/C=C/C=C/[C@H](O[C@@H]2O[C@H](C)[C@@H](O)[C@H](N)[C@@H]2O)C[C@@H]2O[C@](O)(C[C@@H](O)C[C@@H](O)[C@H](O)CC[C@@H](O)C[C@@H](O)CC(=O)O[C@H]1C)C[C@H](O)[C@H]2C(=O)O` [Amphotericin B] as the compound, how does the perinuclear lysosome accumulation read?
**A.** -0.116

**Q.** For `CO[C@@]1(NC(=O)CSCC#N)C(=O)N2C(C(=O)O)=C(CSc3nnnn3C)CS[C@@H]21` [Cefmetazole sodium salt], which perinuclear lysosome accumulation is on record?
**A.** 0.991

**Q.** How did the perinuclear lysosome accumulation turn out when `CC(C)NC[C@H](O)COc1ccc(CC(N)=O)cc1` [(S)-(-)-Atenolol] was run?
**A.** 0.0219

**Q.** With `CCOC(=O)C(C)(C)Oc1ccc(Cl)cc1` [Clofibrate] as the compound, how does the perinuclear lysosome accumulation read?
**A.** -3.08

**Q.** `CC(=O)N(O)CCCCCNC(=O)CCC(=O)N(O)CCCCCNC(=O)CCC(=O)N(O)CCCCCN` [Deferoxamine mesylate] was tested. Which perinuclear lysosome accumulation did it give?
**A.** -0.792

**Q.** `CCN[C@H]1C[C@H](C)S(=O)(=O)c2sc(S(N)(=O)=O)cc21` [Dorzolamide hydrochloride] was tested. Which perinuclear lysosome accumulation did it give?
**A.** 0.891

**Q.** `CC(C)/N=c1\cc2n(-c3ccc(Cl)cc3)c3ccccc3nc-2cc1Nc1ccc(Cl)cc1` [Clofazimine] was tested. Which perinuclear lysosome accumulation did it give?
**A.** 3.58

**Q.** For `O=C1Cc2cc(CCN3CCN(c4nsc5ccccc45)CC3)c(Cl)cc2N1` [Ziprasidone  Hydrochloride], which perinuclear lysosome accumulation is on record?
**A.** -2.03

**Q.** How did the perinuclear lysosome accumulation turn out when `O=c1cc(-c2ccc(O)c(O)c2)oc2cc(O)cc(O)c12` [Luteolin] was run?
**A.** -0.467

**Q.** `CC(C)(C(=O)c1cccnc1)c1cccnc1` [Metyrapone] was tested. Which perinuclear lysosome accumulation did it give?
**A.** 1.66

**Q.** `Cc1cc(=O)n(-c2ccccc2)n1C` [Antipyrine] was tested. Which perinuclear lysosome accumulation did it give?
**A.** 1.26

**Q.** Which perinuclear lysosome accumulation does the source give for `Clc1ccc(COC(Cn2ccnc2)c2ccc(Cl)cc2Cl)c(Cl)c1` (stereo not drawn) [Miconazole] here?
**A.** 0.258

**Q.** Which perinuclear lysosome accumulation does the source give for `NC12CC3CC(CC(C3)C1)C2` [Adamantamine fumarate] here?
**A.** 0.542

**Q.** With `Cc1ccc(-c2ncc(Cl)cc2-c2ccc(S(C)(=O)=O)cc2)cn1` [Etoricoxib] as the compound, how does the perinuclear lysosome accumulation read?
**A.** 0.533

**Q.** How did the perinuclear lysosome accumulation turn out when `CC1CCc2c(N3CCC(O)CC3)c(F)cc3c(=O)c(C(=O)O)cn1c23` (stereo not drawn) [Nadifloxacin] was run?
**A.** -0.332

**Q.** With `C[C@@H]1NC(=O)NC1=O` [Methylhydantoin-5-(L)] as the compound, how does the perinuclear lysosome accumulation read?
**A.** 0.427

**Q.** For `COc1ccc(-c2ccc(=N)n(CCCC(=O)O)n2)cc1` [Gabazine], which perinuclear lysosome accumulation is on record?
**A.** 0.207

**Q.** For `CO[C@H]1C[C@H](O[C@H]2[C@H](C)[C@@H](O[C@@H]3O[C@H](C)C[C@H](N(C)C)[C@H]3OC(C)=O)[C@@H](C)C[C@@]3(CO3)C(=O)[C@H](C)[C@@H](OC(C)=O)[C@@H](C)[C@@H](C)OC(=O)[C@@H]2C)O[C@@H](C)[C@@H]1OC(C)=O` [Troleandomycin], which perinuclear lysosome accumulation is on record?
**A.** -0.494

**Q.** `Cc1cc(C(=O)NNCc2ccccc2)no1` [Isocarboxazid] was tested. Which perinuclear lysosome accumulation did it give?
**A.** -0.166

**Q.** How did the perinuclear lysosome accumulation turn out when `CC(C)(S)[C@@H](N)C(=O)O` [Penicillamine] was run?
**A.** 1.82

**Q.** Which perinuclear lysosome accumulation does the source give for `CN(C)CC/C=C1\c2ccccc2CSc2ccccc21` [Dosulepin hydrochloride] here?
**A.** 0.0231

**Q.** For `CC(C)(Oc1ccc(Cl)cc1)C(=O)O` [Clofibric acid], which perinuclear lysosome accumulation is on record?
**A.** -0.592

**Q.** `CS(=O)(=O)CCNCc1ccc(-c2ccc3ncnc(Nc4ccc(OCc5cccc(F)c5)c(Cl)c4)c3c2)o1` [Lapatinib ditosylate] was tested. Which perinuclear lysosome accumulation did it give?
**A.** 1.37

**Q.** For `Cn1ccnc1S` [Methimazole], which perinuclear lysosome accumulation is on record?
**A.** 0.312

**Q.** How did the perinuclear lysosome accumulation turn out when `Nc1c(Br)cc(Br)cc1CN[C@H]1CC[C@H](O)CC1` [Ambroxol hydrochloride] was run?
**A.** 0.342

**Q.** With `CC(C)(Sc1cc(C(C)(C)C)c(O)c(C(C)(C)C)c1)Sc1cc(C(C)(C)C)c(O)c(C(C)(C)C)c1` [Probucol] as the compound, how does the perinuclear lysosome accumulation read?
**A.** -0.108

**Q.** Which perinuclear lysosome accumulation does the source give for `CN1CCC(=C2c3ccccc3CC(=O)c3sccc32)CC1` [Ketotifen fumarate] here?
**A.** -0.14

**Q.** With `COc1ccccc1N1CCN(CC(O)COc2cccc3ccccc23)CC1` (stereo not drawn) [Naftopidil dihydrochloride] as the compound, how does the perinuclear lysosome accumulation read?
**A.** 0.21

**Q.** With `CN1CCCC(CC2c3ccccc3Sc3ccccc32)C1` (stereo not drawn) [Metixene hydrochloride] as the compound, how does the perinuclear lysosome accumulation read?
**A.** 4.49

**Q.** `CCN1C(=O)NC(c2ccccc2)C1=O` (stereo not drawn) [Ethotoin] was tested. Which perinuclear lysosome accumulation did it give?
**A.** -0.292

**Q.** `CCCN(CCC)C(=O)C(CCC(=O)O)NC(=O)c1ccccc1` (stereo not drawn) [Proglumide] was tested. Which perinuclear lysosome accumulation did it give?
**A.** 1.13

**Q.** For `COc1ccc2c(c1)N(C[C@H](C)CN(C)C)c1ccccc1S2` [Methotrimeprazine maleat salt], which perinuclear lysosome accumulation is on record?
**A.** 1.79

**Q.** `N#CC(c1ccc(Cl)cc1)c1c(Cl)cc(-n2ncc(=O)[nH]c2=O)cc1Cl` (stereo not drawn) [Diclazuril] was tested. Which perinuclear lysosome accumulation did it give?
**A.** 0.975

**Q.** Which perinuclear lysosome accumulation does the source give for `COc1cc(OC)c(C(=O)CCCN2CCCC2)c(OC)c1` [Buflomedil hydrochloride] here?
**A.** 0.345

**Q.** With `CCCCC(CC)CN1CN(CC(CC)CCCC)CC(C)(N)C1` (stereo not drawn) [Hexetidine] as the compound, how does the perinuclear lysosome accumulation read?
**A.** -1.83

**Q.** Which perinuclear lysosome accumulation does the source give for `O=C(CCCN1CCC(O)(c2ccc(Br)cc2)CC1)c1ccc(F)cc1` [Bromperidol] here?
**A.** 0.222

**Q.** With `CO[C@@]1(NC(=O)Cc2cccs2)C(=O)N2C(C(=O)O)=C(COC(N)=O)CS[C@@H]21` [Cefoxitin sodium salt] as the compound, how does the perinuclear lysosome accumulation read?
**A.** -1.09

**Q.** With `CC(=O)c1ccc2c(c1)N(CCCN1CCC(CCO)CC1)c1ccccc1S2` [Piperacetazine] as the compound, how does the perinuclear lysosome accumulation read?
**A.** 1.08

**Q.** For `CCN(CC)CCOC(=O)C(c1ccccc1)C1CCCCC1` (stereo not drawn) [Drofenine hydrochloride], which perinuclear lysosome accumulation is on record?
**A.** -0.33

**Q.** How did the perinuclear lysosome accumulation turn out when `CS(=O)(=O)c1ccc(C2=C(c3ccccc3)C(=O)OC2)cc1` [Rofecoxib] was run?
**A.** 0.822

**Q.** How did the perinuclear lysosome accumulation turn out when `Cn1c(=O)c2[nH]cnc2n(C)c1=O` [Aminophylline] was run?
**A.** 0.00782

**Q.** With `Cc1[nH]c(=O)c(C#N)cc1-c1ccncc1` [Milrinone] as the compound, how does the perinuclear lysosome accumulation read?
**A.** -0.549

**Q.** With `CN(C)CCC=C1c2ccccc2CCc2ccccc21` [Amitryptiline hydrochloride] as the compound, how does the perinuclear lysosome accumulation read?
**A.** -0.137

**Q.** `C[C@]12CC[C@H]3C(=CCc4cc(O)ccc43)[C@@H]1CCC2=O` [Equilin] was tested. Which perinuclear lysosome accumulation did it give?
**A.** 0.0212

**Q.** With `O=P(O)(O)C(Sc1ccc(Cl)cc1)P(=O)(O)O` [Tiludronate disodium] as the compound, how does the perinuclear lysosome accumulation read?
**A.** -0.747

**Q.** `C=C[C@H]1CN2CC[C@H]1C[C@@H]2[C@@H](O)c1ccnc2ccc(OC)cc12` [Quinidine hydrochloride monohydrate] was tested. Which perinuclear lysosome accumulation did it give?
**A.** 0.106

**Q.** `Cc1cccc(C)c1NC(=O)C1CCCCN1C` (stereo not drawn) [Mepivacaine hydrochloride] was tested. Which perinuclear lysosome accumulation did it give?
**A.** 1.15

**Q.** Which perinuclear lysosome accumulation does the source give for `Cc1ncc([N+](=O)[O-])n1CC(O)CCl` (stereo not drawn) [Ornidazole] here?
**A.** 0.207

**Q.** How did the perinuclear lysosome accumulation turn out when `CN1C(C(=O)Nc2ccccn2)=C(O)c2sccc2S1(=O)=O` [Tenoxicam] was run?
**A.** 0.87

**Q.** How did the perinuclear lysosome accumulation turn out when `COc1cc(C(=O)NS(=O)(=O)c2ccccc2C)ccc1Cc1cn(C)c2ccc(NC(=O)OC3CCCC3)cc12` [Zafirlukast] was run?
**A.** 1.9

**Q.** Which perinuclear lysosome accumulation does the source give for `Cc1cc(C2CCCCC2)n(O)c(=O)c1` [Ciclopirox ethanolamine] here?
**A.** -0.551

**Q.** Which perinuclear lysosome accumulation does the source give for `NS(=O)(=O)c1cc(C(=O)O)c(NCc2ccco2)cc1Cl` [Furosemide] here?
**A.** -1.58

**Q.** With `CCOC(=O)[C@H](CCc1ccccc1)N[C@@H](C)C(=O)N1[C@H](C(=O)O)C[C@@H]2CCC[C@@H]21` [Ramipril] as the compound, how does the perinuclear lysosome accumulation read?
**A.** 0.0869

**Q.** Which perinuclear lysosome accumulation does the source give for `CCOc1ccc2c(c1)C(C)=CC(C)(C)N2` [Ethoxyquin] here?
**A.** -0.0952

**Q.** For `NC(=O)c1ncn([C@@H]2O[C@H](CO)[C@@H](O)[C@H]2O)n1` [Ribavirin], which perinuclear lysosome accumulation is on record?
**A.** -1.29

**Q.** With `CC(C)COCC(CN(Cc1ccccc1)c1ccccc1)N1CCCC1` (stereo not drawn) [Bepridil hydrochloride] as the compound, how does the perinuclear lysosome accumulation read?
**A.** 2.67

**Q.** With `CN[C@H](CC(C)C)C(=O)N[C@H]1C(=O)N[C@@H](CC(N)=O)C(=O)N[C@H]2C(=O)N[C@H]3C(=O)N[C@H](C(=O)N[C@H](C(=O)O)c4cc(O)cc(O)c4-c4cc3ccc4O)[C@H](O)c3ccc(c(Cl)c3)Oc3cc2cc(c3O[C@@H]2O[C@H](CO)[C@@H](O)[C@H](O)[C@H]2O[C@H]2C[C@](C)(N)[C@H](O)[C@H](C)O2)Oc2ccc(cc2Cl)[C@H]1O` [Vancomycin hydrochloride] as the compound, how does the perinuclear lysosome accumulation read?
**A.** -1.11
